US6642353B1 (Chugai Seiyaku Kabushiki Kaisha, priority 2000, dated 2003)
Plain letter strings leave the end groups untold.

Test: peptide made by a vendor
Details: whole synthesis, one disulfide bridge, sequence written open

## DREGCRRGWVGQCKAWFN
  final HPLC purity: greater than 95% pure

## DVEACGGGWVGHCNYWLR
  final HPLC purity: greater than 95% pure
